Measured values reported in article PMC7507497.
No constants are given. Whether binding was seen depends on the method and setting. Binding seen in cells or lysates may run through a third protein. These calls come from enrichment with a bait or labelling near it, and not all partners need be listed.

Biological target: FLAG-tagged AGO1 (human) (UniProt Q9UL18)
Assay: affinity purification with mass spectrometry; ex vivo interactors: anti-FLAG M2 IP of FLAG-AGO1 or FLAG-AGO1x from total cell lysates, glycine elution, LC/MS; MDA-MB-231 and HeLa cells

binding: binds
Substance: TNRC6B/GW182 (from UniProt Q9UPQ9 1-1833)
